Assay [1] addresses FLAG-tagged RagD (human) (UniProt Q9NQL2). Description: co-IP; HEK293FT qKO cells transiently expressing HA-RagA with FLAG-RagC, FLAG-RagD or FLAG-Luc; lysis in 50 mM Tris pH 7.5, 0.3% CHAPS, 150 mM NaCl; anti-FLAG M2 affinity gel 3 h at 4 °C; immunoblot. Background: In western blotting, separated proteins are transferred to a membrane and probed.
Another assay has as its target FLAG-tagged p18/LAMTOR1 (UniProt Q6IAA8). Description: co-IP; HEK293FT qKO cells transiently expressing FLAG-p18 or FLAG-Luc, and HA-RagA with HA-RagC, HA-RagD, HA-RagDCD or HA-RagC mutants; lysis in 50 mM Tris pH 7.5, 0.3% CHAPS, 150 mM NaCl; anti-FLAG M2 affinity gel 3 h at 4 °C; immunoblot.
The target of assay [2] is FLAG-tagged RagD (human) (UniProt Q9NQL2). The assay can be described thus: co-IP; HEK293FT qKO cells transiently expressing FLAG-RagA/C, FLAG-RagA/D or FLAG-Luc; endogenous partners detected by immunoblot; lysis in 50 mM Tris pH 7.5, 0.3% CHAPS, 150 mM NaCl; anti-FLAG M2 affinity gel 3 h at 4 °C.
A further assay deals with FLAG-tagged RagA (human) (UniProt Q7L523). The description is as above.
Another assay deals with FLAG-tagged RagC (human) (UniProt Q9HB90). Described as above.

By UniProt entry, the sequences of proteins in these tests, tags left out. Where a name states a change or a piece, a line headed by the entry shows the natural chain unless it says otherwise.
UniProt Q9NQL2: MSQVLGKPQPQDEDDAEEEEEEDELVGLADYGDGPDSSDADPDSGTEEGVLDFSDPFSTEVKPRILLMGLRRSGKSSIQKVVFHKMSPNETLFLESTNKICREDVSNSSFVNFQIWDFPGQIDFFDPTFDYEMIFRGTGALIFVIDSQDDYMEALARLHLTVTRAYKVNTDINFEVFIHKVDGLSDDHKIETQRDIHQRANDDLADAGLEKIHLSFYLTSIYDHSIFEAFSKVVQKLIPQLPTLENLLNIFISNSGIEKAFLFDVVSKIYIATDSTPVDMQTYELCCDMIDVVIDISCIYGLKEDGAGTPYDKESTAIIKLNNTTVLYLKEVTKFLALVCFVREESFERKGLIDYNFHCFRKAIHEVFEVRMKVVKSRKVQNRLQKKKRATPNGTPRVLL
UniProt Q6IAA8: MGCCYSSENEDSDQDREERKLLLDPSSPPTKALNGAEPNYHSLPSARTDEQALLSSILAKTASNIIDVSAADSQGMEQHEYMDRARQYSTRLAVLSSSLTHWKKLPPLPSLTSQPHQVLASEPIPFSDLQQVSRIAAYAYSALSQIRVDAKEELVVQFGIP
UniProt Q7L523: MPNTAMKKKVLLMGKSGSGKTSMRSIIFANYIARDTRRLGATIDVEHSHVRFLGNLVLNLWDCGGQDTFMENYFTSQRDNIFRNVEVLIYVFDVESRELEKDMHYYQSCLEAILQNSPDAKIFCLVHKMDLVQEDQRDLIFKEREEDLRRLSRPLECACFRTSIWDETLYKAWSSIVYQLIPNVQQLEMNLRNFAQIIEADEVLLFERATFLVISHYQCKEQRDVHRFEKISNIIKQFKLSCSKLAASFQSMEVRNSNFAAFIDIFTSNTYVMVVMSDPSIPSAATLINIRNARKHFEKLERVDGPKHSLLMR
UniProt Q9HB90: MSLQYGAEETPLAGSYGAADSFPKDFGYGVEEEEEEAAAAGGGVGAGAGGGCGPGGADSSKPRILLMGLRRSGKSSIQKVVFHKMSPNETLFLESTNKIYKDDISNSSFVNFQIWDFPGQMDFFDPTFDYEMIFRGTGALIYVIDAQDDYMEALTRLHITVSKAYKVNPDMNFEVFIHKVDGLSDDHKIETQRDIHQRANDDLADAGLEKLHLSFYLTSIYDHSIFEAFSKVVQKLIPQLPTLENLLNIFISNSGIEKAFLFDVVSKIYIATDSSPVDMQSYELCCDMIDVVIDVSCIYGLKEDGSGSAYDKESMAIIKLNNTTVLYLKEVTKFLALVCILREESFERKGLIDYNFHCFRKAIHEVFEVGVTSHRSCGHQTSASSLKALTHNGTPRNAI
UniProt Q8N122: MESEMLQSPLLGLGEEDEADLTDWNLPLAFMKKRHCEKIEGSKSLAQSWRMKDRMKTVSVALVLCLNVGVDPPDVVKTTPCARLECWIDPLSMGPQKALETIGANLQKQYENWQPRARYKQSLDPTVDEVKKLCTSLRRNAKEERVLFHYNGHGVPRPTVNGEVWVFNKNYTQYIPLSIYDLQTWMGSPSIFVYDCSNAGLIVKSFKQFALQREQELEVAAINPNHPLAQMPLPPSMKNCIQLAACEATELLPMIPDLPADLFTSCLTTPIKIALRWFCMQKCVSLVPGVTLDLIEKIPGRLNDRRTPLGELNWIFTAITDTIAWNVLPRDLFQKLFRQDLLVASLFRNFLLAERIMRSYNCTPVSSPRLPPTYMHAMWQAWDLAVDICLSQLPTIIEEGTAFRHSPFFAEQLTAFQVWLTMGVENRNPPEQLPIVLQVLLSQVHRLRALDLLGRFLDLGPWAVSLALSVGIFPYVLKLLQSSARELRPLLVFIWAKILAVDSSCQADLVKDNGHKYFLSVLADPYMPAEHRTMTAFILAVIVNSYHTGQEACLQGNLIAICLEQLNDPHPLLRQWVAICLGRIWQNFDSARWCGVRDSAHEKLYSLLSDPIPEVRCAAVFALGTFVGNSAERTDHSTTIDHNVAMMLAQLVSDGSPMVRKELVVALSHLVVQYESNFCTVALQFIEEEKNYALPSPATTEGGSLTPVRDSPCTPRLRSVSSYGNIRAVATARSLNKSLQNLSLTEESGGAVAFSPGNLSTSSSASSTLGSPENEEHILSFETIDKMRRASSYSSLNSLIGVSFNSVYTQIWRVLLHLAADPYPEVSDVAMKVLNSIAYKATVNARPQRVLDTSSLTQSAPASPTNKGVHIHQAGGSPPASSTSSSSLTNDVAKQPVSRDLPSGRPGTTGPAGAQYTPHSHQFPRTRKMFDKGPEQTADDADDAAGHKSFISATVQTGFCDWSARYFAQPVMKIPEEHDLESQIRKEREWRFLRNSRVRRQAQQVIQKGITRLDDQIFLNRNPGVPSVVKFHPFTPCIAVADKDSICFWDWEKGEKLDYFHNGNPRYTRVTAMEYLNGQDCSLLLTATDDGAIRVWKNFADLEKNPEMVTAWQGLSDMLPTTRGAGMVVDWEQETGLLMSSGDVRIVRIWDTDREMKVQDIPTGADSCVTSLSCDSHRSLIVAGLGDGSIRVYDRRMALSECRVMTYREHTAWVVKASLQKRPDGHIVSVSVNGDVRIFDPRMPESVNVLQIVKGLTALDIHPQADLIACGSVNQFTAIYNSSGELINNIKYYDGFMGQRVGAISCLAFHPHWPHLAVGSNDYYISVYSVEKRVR
UniProt Q9P2J5: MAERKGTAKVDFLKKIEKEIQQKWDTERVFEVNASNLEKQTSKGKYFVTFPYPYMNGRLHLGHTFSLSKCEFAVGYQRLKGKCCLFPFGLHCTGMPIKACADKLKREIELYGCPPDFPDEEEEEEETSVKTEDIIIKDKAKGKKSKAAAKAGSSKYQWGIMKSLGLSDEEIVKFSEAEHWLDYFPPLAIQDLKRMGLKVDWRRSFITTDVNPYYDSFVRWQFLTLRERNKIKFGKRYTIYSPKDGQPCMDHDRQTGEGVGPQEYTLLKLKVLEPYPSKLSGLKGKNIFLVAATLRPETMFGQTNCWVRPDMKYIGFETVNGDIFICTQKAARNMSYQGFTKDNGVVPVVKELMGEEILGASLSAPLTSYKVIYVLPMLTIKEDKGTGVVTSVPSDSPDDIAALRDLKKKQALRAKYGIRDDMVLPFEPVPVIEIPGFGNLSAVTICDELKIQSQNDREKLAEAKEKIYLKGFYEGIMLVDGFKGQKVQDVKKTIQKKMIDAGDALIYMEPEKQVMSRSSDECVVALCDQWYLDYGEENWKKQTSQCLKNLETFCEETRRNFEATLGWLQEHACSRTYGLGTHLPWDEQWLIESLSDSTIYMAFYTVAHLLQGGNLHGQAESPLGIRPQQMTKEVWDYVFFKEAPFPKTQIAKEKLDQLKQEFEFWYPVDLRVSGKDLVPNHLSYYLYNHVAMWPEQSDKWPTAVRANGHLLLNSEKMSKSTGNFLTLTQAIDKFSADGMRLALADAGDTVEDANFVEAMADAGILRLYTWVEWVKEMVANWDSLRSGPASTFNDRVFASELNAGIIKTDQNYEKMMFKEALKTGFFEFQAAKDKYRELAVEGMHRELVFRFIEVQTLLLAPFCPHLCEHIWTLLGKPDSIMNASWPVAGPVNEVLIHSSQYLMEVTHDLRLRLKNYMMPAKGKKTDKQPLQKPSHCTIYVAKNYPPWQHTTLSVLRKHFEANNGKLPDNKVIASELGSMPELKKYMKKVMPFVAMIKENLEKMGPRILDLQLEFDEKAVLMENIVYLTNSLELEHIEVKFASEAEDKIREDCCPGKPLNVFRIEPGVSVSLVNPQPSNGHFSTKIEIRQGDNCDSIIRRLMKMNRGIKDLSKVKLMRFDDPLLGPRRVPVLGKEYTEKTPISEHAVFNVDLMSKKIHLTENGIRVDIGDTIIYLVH
UniProt P19532: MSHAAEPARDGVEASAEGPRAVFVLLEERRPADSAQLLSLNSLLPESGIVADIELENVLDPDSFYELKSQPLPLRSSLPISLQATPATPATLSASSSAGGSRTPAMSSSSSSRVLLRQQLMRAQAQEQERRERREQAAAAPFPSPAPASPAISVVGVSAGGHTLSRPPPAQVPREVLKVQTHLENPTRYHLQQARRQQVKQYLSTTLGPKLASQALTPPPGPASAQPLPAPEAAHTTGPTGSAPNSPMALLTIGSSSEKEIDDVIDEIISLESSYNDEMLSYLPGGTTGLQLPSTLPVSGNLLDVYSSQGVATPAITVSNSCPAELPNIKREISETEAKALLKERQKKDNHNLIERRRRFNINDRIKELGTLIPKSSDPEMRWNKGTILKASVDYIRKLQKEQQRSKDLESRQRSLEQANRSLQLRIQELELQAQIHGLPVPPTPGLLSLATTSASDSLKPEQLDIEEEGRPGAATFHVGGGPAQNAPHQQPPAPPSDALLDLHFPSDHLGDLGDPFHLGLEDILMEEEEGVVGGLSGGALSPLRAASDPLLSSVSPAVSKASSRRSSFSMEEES

This is an account of results in publication PMC9481461.

These are yes or no findings as the source states them, for the method shown. Binding seen in cells or lysates may run through a third protein. Some entries that bind do so weakly or less than the wild type.

For the substance “HA-tagged RagA (from UniProt Q7L523 1-313)”, the binding result with FLAG-tagged RagD (human) [1] is “binds”. Take “HA-tagged RagD (from UniProt Q9NQL2-1 1-400)”: in the assay with FLAG-tagged p18/LAMTOR1, the binding result is “binds”. Raptor (from UniProt Q8N122 1-1335): the binding result with FLAG-tagged RagD (human) [2] is on record as “binds”.

On to “leucyl-tRNA synthetase (LARS) (from UniProt Q9P2J5 1-1176)”, for which the binding entry with FLAG-tagged RagD (human) [2] is reported as “binds”. With “transcription factor E3 (TFE3) (from UniProt P19532 1-575)”, the binding result with FLAG-tagged RagD (human) [2], with FLAG-tagged RagA (human) and in the assay with FLAG-tagged RagC (human) was “binds” throughout.
